Here are results for one sequence from publication PMC11975286, “Functional dissection of the conserved C. elegans LEM-3/ANKLE1 nuclease reveals a crucial requirement for the LEM-like and GIY-YIG domains for DNA bridge processing”.

For this series, the target named is T1, LEM-3(241-704) K441A-R456A (Caenorhabditis elegans) (UniProt G5EGA3).
T1 sequence (looked up): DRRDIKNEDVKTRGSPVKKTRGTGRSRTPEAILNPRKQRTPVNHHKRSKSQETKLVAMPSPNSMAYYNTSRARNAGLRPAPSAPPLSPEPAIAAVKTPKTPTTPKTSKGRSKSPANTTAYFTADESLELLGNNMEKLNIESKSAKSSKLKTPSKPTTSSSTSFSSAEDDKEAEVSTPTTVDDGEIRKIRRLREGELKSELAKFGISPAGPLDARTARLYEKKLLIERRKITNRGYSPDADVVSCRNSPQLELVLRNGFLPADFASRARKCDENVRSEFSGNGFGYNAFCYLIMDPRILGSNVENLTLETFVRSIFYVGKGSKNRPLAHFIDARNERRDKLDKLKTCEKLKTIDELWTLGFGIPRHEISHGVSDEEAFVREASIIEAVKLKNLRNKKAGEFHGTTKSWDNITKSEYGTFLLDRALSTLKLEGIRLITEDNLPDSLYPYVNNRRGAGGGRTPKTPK
Put plainly: EMSA. As to conditions: no divalent metal, 100 mM Na+, residual binding, 10 mM Tris-HCl pH 7.5, 100 mM NaCl, 5% glycerol, 5 ng/ul poly(dI-dC), 4 C, 1 h, 8.3 nM HJ-X0-1 (0.13 nM for Kd), 6% native PAGE, 0.5x TBE, recombinant protein, residues 241-704, protein details: His-GST removed by TEV, label: 5'-Cy5 on X0-1, folded or branched DNA. (In general: Mobility shift assays separate free from complexed probe on a gel.)

Weaker means in comparison with the reference protein, sequence or condition of that experiment. Tags and fusion partners may be left off the protein sequences shown.

On to “ACGCTGCCGAATTCTACCAGTGCCTTGCTAGGACATCTTTGCCCACCTGCAGGTTCACCC / GGGTGAACCTGCAGGTGGGCAAAGATGTCCATCTGTTGTAATCGTCAAGCTTTATGCCGT / ACGGCATAAAGCTTGACGATTACAACAGATCATGGAGCTGTCTAGAGGATCCGACTATCG / CGATAGTCGGATCCTCTAGACAGCTCCATGTAGCAAGGCACTGGTAGAATTCGGCAGCGT [HJ-X0-1 (immobile Holliday junction)]”, for which the binding result was “binds more weakly”.
